In publication PMC9045223:

How the values were obtained:
Experiment in all cases: EMSA
Conditions in all cases: EMSA binding buffer not given (as in cited work), 8% native PAGE, phosphorylation pretreatment 50 mM acetyl phosphate, 50 mM Tris-Cl pH 8.0, 5 mM MgCl2, 30 min 30 C, recombinant protein, protein details: 6xHis, label: biotin
[1] = biological target: T1, MtrA D53A (Streptomyces venezuelae 10712) (UniProt F2R521)
T1 sequence (looked up, limits assumed): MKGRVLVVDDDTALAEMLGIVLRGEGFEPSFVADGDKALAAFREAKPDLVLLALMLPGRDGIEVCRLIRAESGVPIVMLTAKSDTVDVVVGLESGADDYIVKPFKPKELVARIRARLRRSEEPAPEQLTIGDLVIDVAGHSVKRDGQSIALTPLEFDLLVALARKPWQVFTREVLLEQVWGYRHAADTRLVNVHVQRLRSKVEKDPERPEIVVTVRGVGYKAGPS

[2] = biological target: T2, MtrA (MtrASVE) (Streptomyces venezuelae 10712) (UniProt F2R521)
T2 sequence (looked up, limits assumed): T1 sequence (looked up, limits assumed) with A53D

[3] = biological target: T3, MtrA D53E (Streptomyces venezuelae 10712) (UniProt F2R521)
T3 sequence (looked up, limits assumed): T1 sequence (looked up, limits assumed) with A53E

[4] = biological target: T4, MtrA D53N (Streptomyces venezuelae 10712) (UniProt F2R521)
T4 sequence (looked up, limits assumed): T1 sequence (looked up, limits assumed) with A53N

[5] = up to 8.3 uM, no or only very weak shift
[6] = pretreated with 50 mM acetyl phosphate, 5 mM MgCl2, 1.2-2.4 uM

Sequence | binding result [1, 5] | binding result ([2]; 4.7 and 8.3 uM protein) | binding result [3, 5] | binding result [4, 5] | binding result [1, 6] | binding result ([2]; no acetyl phosphate, 0.6-2.4 uM) | binding result ([2]; pretreated with 50 mM acetyl phosphate (MtrA-P), 5 mM MgCl2, binding enhanced, 0.6-2.4 uM) | binding result [3, 6] | binding result [4, 6]
ACACTCCTTCTCCGCGCCGGGGGTGTCCAAGTCGTTAGACACGGCGTTCCGGGCGTTGC (double strand) [cmlN-1 probe (SVEN0915/16 WT)] | no binding | binds | no binding | no binding |  |  |  |  | 
AGGAAAGCTGAGTAACACGGGGTTCACATTCGGGCAACCGACGGGAAATCCCGTGTTGC (double strand) [glnII probe (SVEN1874 WT)] | no binding | binds | no binding | no binding |  |  |  |  | 
CATGAGATCGCAAAGCCGCAGTTAACGAGCCGGAAAAACTTCCGCCCTAACGTGCAATG (double strand) [ureA probe (SVEN0835 WT)] |  |  |  |  | no binding | binds | binds | no binding | no binding
CCCACCCCGGTTAACTTCGACGAAACAATTGGGTCATGCTTGAGAAATCCCGTCTGCCT (double strand) [glnA probe (SVEN1863 WT)] | no binding | binds | no binding | no binding |  |  |  |  | 
CCGGCCGTTCACGGTCGCGTAACACGCCCCACCCCTTCGTCACGGCTCCGAAACATCGA (double strand) [amtB probe (SVEN5279 WT)] | no binding | binds | no binding | no binding |  |  |  |  | 
GCTCTCGCGCCCTGAGAGCTTTTGTTCATCCATCCGTAACAACGGTCGGAAAACGCAAA (double strand) [glnR probe (SVEN3917 WT)] | no binding | binds | no binding | no binding |  |  |  |  | 
TGCGATTTCAATCATCACGATGTCAACTCCGTGTCAAATTTTCGTTGCACGACTCTCGG (double strand) [jadR1-R2 probe (SVEN5972/73 WT)] | no binding | binds | no binding | no binding |  |  |  |  | 

Positions count from the first letter of the chain named. The exact form of at least one protein or probe is not confirmed. For some assays here: A negative result means that nothing was seen under these conditions. At least one verdict rests on a figure or table, not on a statement of the authors. Protein sequences can lack the tags named with them.
